Measured values as given in doi:10.1101/857904.
Results are given in words; binding and its absence hold for the method and conditions named. Binding seen in cells or lysates may run through a third protein.

Protein sequences, listed by entry. Tags and fused reporters are not part of them. Residues count along the entry.
UniProt P30530, residues 26-894: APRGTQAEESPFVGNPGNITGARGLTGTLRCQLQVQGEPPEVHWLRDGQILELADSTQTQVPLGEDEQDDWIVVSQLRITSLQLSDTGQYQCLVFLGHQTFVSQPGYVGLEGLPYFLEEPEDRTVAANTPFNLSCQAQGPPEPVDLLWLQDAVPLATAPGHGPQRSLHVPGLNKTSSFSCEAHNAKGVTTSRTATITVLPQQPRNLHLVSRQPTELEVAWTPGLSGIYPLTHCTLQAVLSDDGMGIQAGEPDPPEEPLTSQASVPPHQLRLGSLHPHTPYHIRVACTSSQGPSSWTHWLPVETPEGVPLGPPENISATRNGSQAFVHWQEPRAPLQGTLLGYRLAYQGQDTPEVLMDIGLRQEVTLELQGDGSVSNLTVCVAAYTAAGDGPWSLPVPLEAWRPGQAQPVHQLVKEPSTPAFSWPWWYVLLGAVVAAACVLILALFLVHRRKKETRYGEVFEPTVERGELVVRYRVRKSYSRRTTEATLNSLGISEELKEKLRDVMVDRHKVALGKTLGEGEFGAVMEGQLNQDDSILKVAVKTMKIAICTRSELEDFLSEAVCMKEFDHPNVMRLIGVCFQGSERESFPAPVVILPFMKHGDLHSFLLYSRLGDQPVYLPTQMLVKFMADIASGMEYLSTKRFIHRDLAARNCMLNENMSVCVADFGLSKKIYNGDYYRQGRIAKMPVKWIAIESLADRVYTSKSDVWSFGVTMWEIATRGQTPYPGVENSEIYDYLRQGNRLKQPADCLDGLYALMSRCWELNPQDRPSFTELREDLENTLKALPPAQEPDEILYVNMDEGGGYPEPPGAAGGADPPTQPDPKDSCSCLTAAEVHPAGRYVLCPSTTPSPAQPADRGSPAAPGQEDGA

Molecular target: AXL (human (endogenous in 238 R melanoma cells)) (UniProt P30530)
Test: co-IP

binding: no binding
B1: DDR2-mCherry (receptor, UniProt Q16832 22-855)
chain: KAQVNPAICRYPLGMSGGQIPDEDITASSQWSESTAAKYGRLDSEEGDGAWCPEIPVEPDDLKEFLQIDLHTLHFITLVGTQGRHAGGHGIEFAPMYKINYSRDGTRWISWRNRHGKQVLDGNSNPYDIFLKDLEPPIVARFVRFIPVTDHSMNVCMRVELYGCVWLDGLVSYNAPAGQQFVLPGGSIIYLNDSVYDGAVGYSMTEGLGQLTDGVSGLDDFTQTHEYHVWPGYDYVGWRNESATNGYIEIMFEFDRIRNFTTMKVHCNNMFAKGVKIFKEVQCYFRSEASEWEPNAISFPLVLDDVNPSARFVTVPLHHRMASAIKCQYHFADTWMMFSEITFQSDAAMYNNSEALPTSPMAPTTYDPMLKVDDSNTRILIGCLVAIIFILLAIIVIILWRQFWQKMLEKASRRMLDDEMTVSLSLPSDSSMFNNNRSSSPSEQGSNSTYDRIFPLRPDYQEPSRLIRKLPEFAPGEEESGCSGVVKPVQPSGPEGVPHYAEADIVNLQGVTGGNTYSVPAVTMDLLSGKDVAVEEFPRKLLTFKEKLGEGQFGEVHLCEVEGMEKFKDKDFALDVSANQPVLVAVKMLRADANKNARNDFLKEIKIMSRLKDPNIIHLLAVCITDDPLCMITEYMENGDLNQFLSRHEPPNSSSSDVRTVSYTNLKFMATQIASGMKYLSSLNFVHRDLATRNCLVGKNYTIKIADFGMSRNLYSGDYYRIQGRAVLPIRWMSWESILLGKFTTASDVWAFGVTLWETFTFCQEQPYSQLSDEQVIENTGEFFRDQGRQTYLPQPAICPDSVYKLMLSCWRRDTKNRPSFQEIHLLLLQQGDE
